{"source": "paper PMC9932578", "about": "(Clinical Cancer Research, 2022)", "key": {"[1]": {"system": "relapsed/refractory hematologic malignancies (AML, NHL, MM, MDS, CTCL)"}, "[2]": {"assay": "Plasma pharmacokinetics", "conditions": "therapeutic doses (60–120 mg QD)"}, "[3]": {"conditions": "human, in vivo"}, "[4]": {"conditions": "Part 1 total population (n = 87)"}, "[5]": {"conditions": "Part 2 total population (n = 24)"}, "[6]": {"conditions": "Patient 1, 120 mg QD, after 4 months"}, "[7]": {"conditions": "Total study population (N = 111)"}, "[8]": {"conditions": "patient with NHL (DLBCL), 80 mg QD"}}, "note": "Read-outs that look alike come from different tables or passages of the source. Marks after values point to notes of the source that are not given here.", "data": [{"smiles": "CCNC(=O)C[C@@H]1N=C(c2ccc(Cl)cc2)c2cc(OC)ccc2-n2c(C)nnc21", "note": "[molibresib]", "values": [{"measurement": "patients achieving complete response", "setting": "[1]; Part 1", "value": 3, "unit": "patients"}, {"measurement": "patients achieving partial response", "setting": "[1]; Part 1", "value": 6, "unit": "patients"}, {"measurement": "patients achieving complete response", "setting": "[1]; Part 1 AML", "value": 2, "unit": "patients"}, {"measurement": "patients achieving partial response", "setting": "[1]; Part 1 AML", "value": 4, "unit": "patients"}, {"measurement": "patients achieving complete response", "setting": "[1]; Part 1 NHL", "value": 1, "unit": "patients"}, {"measurement": "patients achieving partial response", "setting": "[1]; Part 1 NHL", "value": 2, "unit": "patients"}, {"measurement": "Best response: CR", "setting": "[1]; [4]", "value": "1 (1) n (%)"}, {"measurement": "Best response: CRi/CRp", "setting": "[1]; [4]", "value": "2 (2) n (%)"}, {"measurement": "Best response: No response", "setting": "[1]; [4]", "value": "23 (26) n (%)"}, {"measurement": "Best response: Not evaluable", "setting": "[1]; [4]", "value": "23 (26) n (%)"}, {"measurement": "Best response: PR", "setting": "[1]; [4]", "value": "6 (7) n (%)"}, {"measurement": "Best response: Progressive disease", "setting": "[1]; [4]", "value": "23 (26) n (%)"}, {"measurement": "Best response: SD", "setting": "[1]; [4]", "value": "9 (10) n (%)"}, {"measurement": "Best response: mCR", "setting": "[1]; [4]", "value": "0 n (%)"}, {"measurement": "ORR", "setting": "[1]; [4]", "value": "10 (4.8–18.7) % (95% CI)"}, {"measurement": "patients achieving complete response", "setting": "[1]; Part 2 (MDS)", "value": 3, "unit": "patients"}, {"measurement": "patients achieving partial response", "setting": "[1]; Part 2 (MDS)", "value": 1, "unit": "patients"}, {"measurement": "Best response: CR", "setting": "[1]; Part 2 CTCL cohort (n = 8)", "value": "0 n (%)"}, {"measurement": "Best response: CRi/CRp", "setting": "[1]; Part 2 CTCL cohort (n = 8)", "value": "0 n (%)"}, {"measurement": "Best response: No response", "setting": "[1]; Part 2 CTCL cohort (n = 8)", "value": "0 n (%)"}, {"measurement": "Best response: Not evaluable", "setting": "[1]; Part 2 CTCL cohort (n = 8)", "value": "3 (38) n (%)"}, {"measurement": "Best response: PR", "setting": "[1]; Part 2 CTCL cohort (n = 8)", "value": "0 n (%)"}, {"measurement": "Best response: SD", "setting": "[1]; Part 2 CTCL cohort (n = 8)", "value": "5 (63) n (%)"}, {"measurement": "Best response: mCR", "setting": "[1]; Part 2 CTCL cohort (n = 8)", "value": "0 n (%)"}, {"measurement": "ORR", "setting": "[1]; Part 2 CTCL cohort (n = 8)", "value": "0 % (95% CI)"}, {"measurement": "Best response: CR", "setting": "[1]; Part 2 MDS cohort (n = 16)", "value": "1 (6) n (%)"}, {"measurement": "Best response: CRi/CRp", "setting": "[1]; Part 2 MDS cohort (n = 16)", "value": "1 (6)^c n (%)"}, {"measurement": "Best response: No response", "setting": "[1]; Part 2 MDS cohort (n = 16)", "value": "3 (19) n (%)"}, {"measurement": "Best response: Not evaluable", "setting": "[1]; Part 2 MDS cohort (n = 16)", "value": "8 (50) n (%)"}, {"measurement": "Best response: PR", "setting": "[1]; Part 2 MDS cohort (n = 16)", "value": "1 (6) n (%)"}, {"measurement": "Best response: SD", "setting": "[1]; Part 2 MDS cohort (n = 16)", "value": "1 (6) n (%)"}, {"measurement": "Best response: mCR", "setting": "[1]; Part 2 MDS cohort (n = 16)", "value": "1 (6) n (%)"}, {"measurement": "Best response: CR", "setting": "[1]; [5]", "value": "1 (4) n (%)"}, {"measurement": "Best response: CRi/CRp", "setting": "[1]; [5]", "value": "1 (4) n (%)"}, {"measurement": "Best response: No response", "setting": "[1]; [5]", "value": "3 (13) n (%)"}, {"measurement": "Best response: Not evaluable", "setting": "[1]; [5]", "value": "11 (46) n (%)"}, {"measurement": "Best response: PR", "setting": "[1]; [5]", "value": "1 (4) n (%)"}, {"measurement": "Best response: SD", "setting": "[1]; [5]", "value": "6 (25) n (%)"}, {"measurement": "Best response: mCR", "setting": "[1]; [5]", "value": "1 (4) n (%)"}, {"measurement": "absolute neutrophil count (recovery)", "setting": "[1]; [6]", "value": "2.94e+09", "unit": "L⁻¹"}, {"measurement": "hemoglobin level (recovery)", "setting": "[1]; [6]", "value": 10.2, "unit": "g/dL"}, {"measurement": "bone marrow blasts", "setting": "[1]; Patient 1, AML after MDS, 120 mg QD, after 4 months of treatment", "value": 0, "unit": "%"}, {"measurement": "time to progression with increasing marrow blast counts", "setting": "[1]; Patient 6, 60 mg QD", "value": 134, "unit": "days"}, {"measurement": "time to documented PR", "setting": "[1]; Patient 6, AML with myelodysplasia-related changes, 60 mg QD", "value": 99, "unit": "days"}, {"measurement": "Best response: CR", "setting": "[1]; [7]", "value": "2 (2) n (%)"}, {"measurement": "Best response: CRi/CRp", "setting": "[1]; [7]", "value": "3 (3) n (%)"}, {"measurement": "Best response: No response", "setting": "[1]; [7]", "value": "26 (23) n (%)"}, {"measurement": "Best response: Not evaluable", "setting": "[1]; [7]", "value": "34 (31) n (%)"}, {"measurement": "Best response: PR", "setting": "[1]; [7]", "value": "7 (6) n (%)"}, {"measurement": "Best response: Progressive disease", "setting": "[1]; [7]", "value": "23 (21) n (%)"}, {"measurement": "Best response: SD", "setting": "[1]; [7]", "value": "15 (14) n (%)"}, {"measurement": "Best response: mCR", "setting": "[1]; [7]", "value": "1 (<1) n (%)"}, {"measurement": "ORR", "setting": "[1]; [7]", "value": "13 (6.9–20.6) % (95% CI)"}, {"measurement": "total duration complete remission was maintained", "setting": "[1]; [8]", "value": 53, "unit": "weeks"}, {"measurement": "treatment time at which patient was in complete remission", "setting": "[1]; [8]", "value": 16, "unit": "weeks"}, {"measurement": "patients achieving partial response", "setting": "[1]; whole study", "value": 7, "unit": "patients"}, {"measurement": "change in exposure (AUC0–24) with repeated administration", "setting": "[2]", "value": "appeared to decrease"}, {"measurement": "AE: diarrhea", "setting": "[3]", "value": 50, "unit": "%"}, {"measurement": "AE: nausea", "setting": "[3]", "value": 46, "unit": "%"}, {"measurement": "AE: thrombocytopenia", "setting": "[3]", "value": 40, "unit": "%"}, {"measurement": "Grade 3+ AE: anemia", "setting": "[3]", "value": 15, "unit": "%"}, {"measurement": "Grade 3+ AE: febrile neutropenia", "setting": "[3]", "value": 15, "unit": "%"}, {"measurement": "Grade 3+ AE: thrombocytopenia", "setting": "[3]", "value": 37, "unit": "%"}, {"measurement": "diarrhea leading to dose interruption", "setting": "[3]", "value": 10, "unit": "%"}, {"measurement": "dysgeusia leading to permanent discontinuation", "setting": "[3]", "value": 4, "unit": "%"}, {"measurement": "patients permanently discontinuing study treatment", "setting": "[3]", "value": 30, "unit": "%"}, {"measurement": "patients requiring dose interruptions", "setting": "[3]", "value": 61, "unit": "%"}, {"measurement": "patients requiring dose reductions", "setting": "[3]", "value": 25, "unit": "%"}, {"measurement": "patients with SAE considered related to treatment", "setting": "[3]", "value": 38, "unit": "%"}, {"measurement": "patients with maximum Grade 1 or 2 AE", "setting": "[3]", "value": 10, "unit": "%"}, {"measurement": "sepsis leading to permanent discontinuation", "setting": "[3]", "value": 5, "unit": "%"}, {"measurement": "thrombocytopenia leading to dose interruption", "setting": "[3]", "value": 10, "unit": "%"}, {"measurement": "thrombocytopenia leading to dose reduction", "setting": "[3]", "value": 15, "unit": "%"}, {"measurement": "treatment-related SAE: cardiac failure", "setting": "[3]", "value": 2, "unit": "%"}, {"measurement": "treatment-related SAE: decreased appetite", "setting": "[3]", "value": 2, "unit": "%"}, {"measurement": "treatment-related SAE: diarrhea", "setting": "[3]", "value": 2, "unit": "%"}, {"measurement": "treatment-related SAE: hematuria", "setting": "[3]", "value": 2, "unit": "%"}, {"measurement": "treatment-related SAE: increased alanine aminotransferase", "setting": "[3]", "value": 2, "unit": "%"}, {"measurement": "treatment-related SAE: neutropenia", "setting": "[3]", "value": 3, "unit": "%"}, {"measurement": "treatment-related SAE: pyrexia", "setting": "[3]", "value": 2, "unit": "%"}, {"measurement": "treatment-related SAE: thrombocytopenia", "setting": "[3]", "value": 20, "unit": "%"}]}]}
